{"source": "PubChem BioAssay AID1508597 – Cure First, 2020", "assay": "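Genes whose silencing sensitises or protects ovarian cancer cells against rucaparib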 (primary screen)", "system": "human ovarian carcinoma lines grown from tumours: OCI-P5x (papillary serous) and OCI-C5x (clear cell)", "reagents": "siRNA pool against human genes, 1.25 pmol siRNA per well", "duration": "72 h or 96 h, depending on the cell culture", "conditions": "rucaparib 20 µM (about IC30) or vehicle, present until read-out", "detection": "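ATP luminescence measured at 72 or 96 h according to the culture, then normalised and expressed as percent viability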", "reading the numbers": "viability, normalised: higher = more viable cells remaining", "rule for the call": "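Active when normalised viability falls below 80 percent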", "calls": "active = viability under 80%; inactive = viability 80% or more", "note": "Shown is an unselected part of about 2,100 reagents. 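Calls flag viability under 80% in either arm, not effects specific to rucaparib; the reference for percent is not stated.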 Entries without a mark were called inactive. Not stated in the record: the 100% reference."}
{"target gene": "MBD1 (GeneID 4152)", "rucaparib or vehicle": "Rucaparib", "cell line": "OCI-C5x (clear cell)", "technical replicate": "1", "viability, normalised (%)": "54 (active)"}
{"target gene": "MBD1 (GeneID 4152)", "rucaparib or vehicle": "Rucaparib", "cell line": "OCI-C5x (clear cell)", "technical replicate": "2", "viability, normalised (%)": "33.4 (active)"}
{"target gene": "MBD1 (GeneID 4152)", "rucaparib or vehicle": "Rucaparib", "cell line": "OCI-C5x (clear cell)", "technical replicate": "3", "viability, normalised (%)": "49.5 (active)"}
{"target gene": "MBD1 (GeneID 4152)", "rucaparib or vehicle": "Rucaparib", "cell line": "OCI-P5x (serous)", "technical replicate": "1", "viability, normalised (%)": "77.5 (active)"}
{"target gene": "MBD1 (GeneID 4152)", "rucaparib or vehicle": "Rucaparib", "cell line": "OCI-P5x (serous)", "technical replicate": "2", "viability, normalised (%)": "74.1 (active)"}
{"target gene": "MBD1 (GeneID 4152)", "rucaparib or vehicle": "Rucaparib", "cell line": "OCI-P5x (serous)", "technical replicate": "3", "viability, normalised (%)": "70.3 (active)"}
{"target gene": "MBD1 (GeneID 4152)", "rucaparib or vehicle": "Vehicle", "cell line": "OCI-C5x (clear cell)", "technical replicate": "1", "viability, normalised (%)": "39.2 (active)"}
{"target gene": "MBD1 (GeneID 4152)", "rucaparib or vehicle": "Vehicle", "cell line": "OCI-C5x (clear cell)", "technical replicate": "2", "viability, normalised (%)": "56.4 (active)"}
{"target gene": "MBD1 (GeneID 4152)", "rucaparib or vehicle": "Vehicle", "cell line": "OCI-C5x (clear cell)", "technical replicate": "3", "viability, normalised (%)": "43.6 (active)"}
{"target gene": "MBD1 (GeneID 4152)", "rucaparib or vehicle": "Vehicle", "cell line": "OCI-P5x (serous)", "technical replicate": "1", "viability, normalised (%)": "60.9 (active)"}
{"target gene": "MBD1 (GeneID 4152)", "rucaparib or vehicle": "Vehicle", "cell line": "OCI-P5x (serous)", "technical replicate": "2", "viability, normalised (%)": 87.4}
{"target gene": "MBD1 (GeneID 4152)", "rucaparib or vehicle": "Vehicle", "cell line": "OCI-P5x (serous)", "technical replicate": "3", "viability, normalised (%)": 84.3}
{"target gene": "AMHR2 (GeneID 269)", "rucaparib or vehicle": "Rucaparib", "cell line": "OCI-C5x (clear cell)", "technical replicate": "1", "viability, normalised (%)": "48.5 (active)"}
{"target gene": "AMHR2 (GeneID 269)", "rucaparib or vehicle": "Rucaparib", "cell line": "OCI-C5x (clear cell)", "technical replicate": "2", "viability, normalised (%)": "49.3 (active)"}
{"target gene": "AMHR2 (GeneID 269)", "rucaparib or vehicle": "Rucaparib", "cell line": "OCI-C5x (clear cell)", "technical replicate": "3", "viability, normalised (%)": "38.7 (active)"}
{"target gene": "AMHR2 (GeneID 269)", "rucaparib or vehicle": "Rucaparib", "cell line": "OCI-P5x (serous)", "technical replicate": "1", "viability, normalised (%)": 95.9}
{"target gene": "AMHR2 (GeneID 269)", "rucaparib or vehicle": "Rucaparib", "cell line": "OCI-P5x (serous)", "technical replicate": "2", "viability, normalised (%)": 101}
{"target gene": "AMHR2 (GeneID 269)", "rucaparib or vehicle": "Rucaparib", "cell line": "OCI-P5x (serous)", "technical replicate": "3", "viability, normalised (%)": 96.7}
{"target gene": "AMHR2 (GeneID 269)", "rucaparib or vehicle": "Vehicle", "cell line": "OCI-C5x (clear cell)", "technical replicate": "1", "viability, normalised (%)": "57.2 (active)"}
{"target gene": "AMHR2 (GeneID 269)", "rucaparib or vehicle": "Vehicle", "cell line": "OCI-C5x (clear cell)", "technical replicate": "2", "viability, normalised (%)": "56.1 (active)"}
{"target gene": "AMHR2 (GeneID 269)", "rucaparib or vehicle": "Vehicle", "cell line": "OCI-C5x (clear cell)", "technical replicate": "3", "viability, normalised (%)": "51.2 (active)"}
{"target gene": "AMHR2 (GeneID 269)", "rucaparib or vehicle": "Vehicle", "cell line": "OCI-P5x (serous)", "technical replicate": "1", "viability, normalised (%)": 85.5}
{"target gene": "AMHR2 (GeneID 269)", "rucaparib or vehicle": "Vehicle", "cell line": "OCI-P5x (serous)", "technical replicate": "2", "viability, normalised (%)": "78.7 (active)"}
{"target gene": "AMHR2 (GeneID 269)", "rucaparib or vehicle": "Vehicle", "cell line": "OCI-P5x (serous)", "technical replicate": "3", "viability, normalised (%)": 83.5}

Next part (3 carried over from the part before).
{"target gene": "AMHR2 (GeneID 269)", "rucaparib or vehicle": "Vehicle", "cell line": "OCI-P5x (serous)", "technical replicate": "1", "viability, normalised (%)": 85.5}
{"target gene": "AMHR2 (GeneID 269)", "rucaparib or vehicle": "Vehicle", "cell line": "OCI-P5x (serous)", "technical replicate": "2", "viability, normalised (%)": "78.7 (active)"}
{"target gene": "AMHR2 (GeneID 269)", "rucaparib or vehicle": "Vehicle", "cell line": "OCI-P5x (serous)", "technical replicate": "3", "viability, normalised (%)": 83.5}
{"target gene": "PARP14 (GeneID 54625)", "rucaparib or vehicle": "Rucaparib", "cell line": "OCI-C5x (clear cell)", "technical replicate": "1", "viability, normalised (%)": "29.5 (active)"}
{"target gene": "PARP14 (GeneID 54625)", "rucaparib or vehicle": "Rucaparib", "cell line": "OCI-C5x (clear cell)", "technical replicate": "2", "viability, normalised (%)": "29.2 (active)"}
{"target gene": "PARP14 (GeneID 54625)", "rucaparib or vehicle": "Rucaparib", "cell line": "OCI-C5x (clear cell)", "technical replicate": "3", "viability, normalised (%)": "28.7 (active)"}
{"target gene": "PARP14 (GeneID 54625)", "rucaparib or vehicle": "Rucaparib", "cell line": "OCI-P5x (serous)", "technical replicate": "1", "viability, normalised (%)": "43.1 (active)"}
{"target gene": "PARP14 (GeneID 54625)", "rucaparib or vehicle": "Rucaparib", "cell line": "OCI-P5x (serous)", "technical replicate": "2", "viability, normalised (%)": "55.6 (active)"}
{"target gene": "PARP14 (GeneID 54625)", "rucaparib or vehicle": "Rucaparib", "cell line": "OCI-P5x (serous)", "technical replicate": "3", "viability, normalised (%)": "47.3 (active)"}
{"target gene": "PARP14 (GeneID 54625)", "rucaparib or vehicle": "Vehicle", "cell line": "OCI-C5x (clear cell)", "technical replicate": "1", "viability, normalised (%)": "30 (active)"}
{"target gene": "PARP14 (GeneID 54625)", "rucaparib or vehicle": "Vehicle", "cell line": "OCI-C5x (clear cell)", "technical replicate": "2", "viability, normalised (%)": "20.3 (active)"}
{"target gene": "PARP14 (GeneID 54625)", "rucaparib or vehicle": "Vehicle", "cell line": "OCI-C5x (clear cell)", "technical replicate": "3", "viability, normalised (%)": "43.8 (active)"}
{"target gene": "PARP14 (GeneID 54625)", "rucaparib or vehicle": "Vehicle", "cell line": "OCI-P5x (serous)", "technical replicate": "1", "viability, normalised (%)": "61.7 (active)"}
{"target gene": "PARP14 (GeneID 54625)", "rucaparib or vehicle": "Vehicle", "cell line": "OCI-P5x (serous)", "technical replicate": "2", "viability, normalised (%)": "60.5 (active)"}
{"target gene": "PARP14 (GeneID 54625)", "rucaparib or vehicle": "Vehicle", "cell line": "OCI-P5x (serous)", "technical replicate": "3", "viability, normalised (%)": "76.1 (active)"}
